{"source": "patent US7348421B1", "about": "“Methods for production of p-hydroxybenzoate in bacteria” (North Carolina State University, priority 2000, dated 2008)", "key": {"[1]": {"system": "Pseudomonas putida DOT-T1E (wild-type)", "format": "cell-based", "conditions": "gradient 0 to 50 g/L"}, "T1E pPAT7": {"system": "T1E pPAT7", "format": "cell-based, Pseudomonas putida", "conditions": "gradient 0 to 50 g/L"}}}
{"smiles": "N[C@@H](Cc1ccc(O)cc1)C(=O)O", "note": "[Tyrosine, L-tyrosine]", "values": [{"measurement": "tolerance to amino acid", "setting": "[1]", "result": 39.4, "unit": "g/L"}, {"measurement": "tolerance to amino acid", "setting": "T1E pPAT7", "result": 36.5, "unit": "g/L"}]}
